From PMC4423214 come the findings set out here.

The experiment deals with T1, ASK1 C-terminal (CT: 955–1,374 amino acids) domain, HA-tagged (human) (UniProt Q99683).
T1 sequence: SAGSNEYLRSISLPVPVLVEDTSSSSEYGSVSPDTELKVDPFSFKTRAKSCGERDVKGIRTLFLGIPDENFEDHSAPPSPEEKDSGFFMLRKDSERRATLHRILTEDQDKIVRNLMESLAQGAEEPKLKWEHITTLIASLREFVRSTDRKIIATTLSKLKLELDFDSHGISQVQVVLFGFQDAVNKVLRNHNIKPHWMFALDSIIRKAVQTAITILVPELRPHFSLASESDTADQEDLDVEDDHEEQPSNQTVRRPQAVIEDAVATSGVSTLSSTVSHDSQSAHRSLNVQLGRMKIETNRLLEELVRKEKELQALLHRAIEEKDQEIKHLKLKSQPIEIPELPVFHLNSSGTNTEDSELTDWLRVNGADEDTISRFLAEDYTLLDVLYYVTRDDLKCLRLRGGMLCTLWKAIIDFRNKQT
The experiment in a line: co-IP; HEK293 cells cotransfected; lysates in HBST buffer (10 mM HEPES pH 7.4, 150 mM NaCl, 0.5% Triton-X-100) immunoprecipitated with anti-HA affinity gel; bound Vif detected by western blot. On the technique in general: Immunoblotting shows a protein as a band on a membrane.

No constants are given. Whether binding was seen depends on the method and setting. Binding seen in cells or lysates may run through a third protein. Binding can be weak; no strength is given. Tags and fused reporters may be left off the sequences shown.

HIV-1 NL4-3 Vif: the binding entry was “binds”.
